Results deposited as PubChem BioAssay AID1259425 (University of Nebraska Medical Center, 2018)
Purpose: 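Find knockdowns that reproduce the gene expression pattern seen when KSR1 is lost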 (primary screen). Cells: HCT116 human colon cancer cells. Knock-down reagent: siRNA pool against human genes, 50 nM siRNA. Read-out: 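mRNA of six signature genes measured together by branched-DNA assay after 50 nM siRNA pool, blank removed, divided by geometric mean of two housekeeping genes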. Reading the numbers: BNIP3L mRNA: higher = more BNIP3L transcript after knockdown; NDRG1 mRNA: higher = more NDRG1 transcript after knockdown; BNIP3 mRNA: higher = more BNIP3 transcript after knockdown; ALDOC mRNA: higher = more ALDOC transcript after knockdown; ACSL5 mRNA: higher = more ACSL5 transcript after knockdown.
In all, the deposit lists about 14,000 reagents; below is a random part of them. No sequences are given here. Not stated in the record: the time to read-out.

The first 4 records, to show the layout:
no.	Gene	BNIP3L mRNA, set 1	NDRG1 mRNA, set 1	BNIP3 mRNA, set 1	ALDOC mRNA, set 1	ACSL5 mRNA, set 1
1	RETSAT	0.108	0.426	0.381	0.0132	0.149
2	ODAM	0.108	0.321	0.244	0.0389	0.0344
3	PEX7	0.0752	0.0884	0.236	0.0394	0.0861
4	ANKRD17	0.221	0.243	0.617	0.0701	0.243

The listing, from the start:
no.	Gene	BNIP3L mRNA, set 1	NDRG1 mRNA, set 1	BNIP3 mRNA, set 1	ALDOC mRNA, set 1	ACSL5 mRNA, set 1
1	RETSAT	0.108	0.426	0.381	0.0132	0.149
2	ODAM	0.108	0.321	0.244	0.0389	0.0344
3	PEX7	0.0752	0.0884	0.236	0.0394	0.0861
4	ANKRD17	0.221	0.243	0.617	0.0701	0.243
5	DCAKD	0.237	0.259	0.209	0.0574	0.34
6	MLPH	0.101	0.194	0.318	0.0425	0.211
7	EFEMP2	0.173	0.173	0.451	0.0465	0.0847
8	API5	0.0379	0.0702	0.226	0.00934	0.136
9	VLDLR	0.098	0.089	0.293	0.0125	0.0553
10	GIT2	0.323	0.516	0.634	0.0868	0.217
11	PIK3CD	0.0635	0.107	0.229	0.0314	0.127
12	LPIN1	0.147	0.136	0.312	0.0124	0.183
13	PIGY	0.0394	0.255	0.467	0.0615	0.302
14	FLT1	0.334	0.162	0.618	0.0213	0.226
15	TRIM33	0.0621	0.0548	0.27	0.0237	0.0795
16	NPBWR1	0.255	0.637	0.488	0.054	0.292
17	CLK1	0.116	0.225	0.31	0.0191	0.228
18	KIF9	0.0706	0.0712	0.205	0.0197	0.117
19	ARL4D	0.0504	0.0693	0.271	0.0179	0.149
20	UGGT1	0.107	0.509	0.317	0.0287	0.215
21	C7	0.163	0.185	0.406	0.0482	0.301
22	MC5R	0.142	0.515	0.42	0.0441	0.279
23	CALHM2	0.231	0.455	0.35	0.0247	0.22
24	ERAL1	0.0935	0.186	0.277	0.00774	0.213
25	NOTCH4	0.102	0.388	0.258	0.0223	0.115
26	KRTAP5-8	0.202	0.143	0.385	0.0958	0.183
27	USP48	0.129	0.121	0.188	0.0597	0.329
28	IL26	0.0881	0.0814	0.198	0.0343	0.0873
29	ADD3	0.117	0.172	0.265	0.0297	0.0799
30	ZNF143	0.115	0.075	0.284	0.000411	0.302
31	SCAMP3	0.0628	0.0893	0.343	0.0169	0.126
32	RNF220	0.0602	0.0271	0.282	0.0374	0.0745
33	CUL2	0.106	0.183	0.469	0.0382	0.197
34	MUC6	0.287	0.465	0.731	0.035	0.376
35	PPP3CB	0.026	0.0828	0.204	0.0284	0.0998
36	ICAM2	0.0981	0.126	0.238	0.0233	0.0628
37	BRD3	0.186	0.377	0.601	0.0846	0.208
38	SEPHS2	0.0578	0.0619	0.124	0.00831	0.0994
39	PCDHA3	0.127	0.0313	0.267	0.0126	0.121
40	STK17B	0.0411	0.0767	0.243	0.00479	0.163
41	MUTYH	0.102	0.122	0.296	0.0164	0.0981
42	KRT23	0.0517	0.0999	0.289	0.0175	0.124
43	B3GNT9	0.439	0.413	0.017	0.0139	1.08
44	MSL2	1.03	4.94	3.24	0.818	0.328
45	ZNF672	0.0105	3.31	0.5	0.0382	0.741
46	SUPT3H	0.135	0.298	0.308	0.00687	0.124
47	DECR1	0.0789	0.0895	0.263	0.02	0.141
48	EXOSC5	0.334	0.171	0.228	0.0499	0.158
49	KRT17	0.166	0.362	0.313	0.0356	0.277
50	TGS1	0.083	0.142	0.227	0.0267	0.0986
51	ELAC1	0.0358	0.118	0.174	0.00661	0.129
52	WASF2	0.0731	0.0816	0.278	0.0202	0.146
53	COMP	0.0649	0.145	0.178	0.0293	0.13
54	ASAP1	0.192	0.473	0.378	0.0306	0.342
55	UBE2G2	0.0679	0.231	0.162	0.0208	0.11
56	RRP1	0.161	0.188	0.348	0.0239	0.162
57	FYCO1	0.17	0.056	0.226	0.018	0.113
58	OTUB1	0.0793	0.0726	0.144	0.0314	0.217
59	TCEA1	0.0591	0.126	0.255	0.012	0.185
60	UBXN6	0.117	0.16	0.253	0.00759	0.143
61	PLCG1	0.0566	0.0669	0.256	0.012	0.0827
62	SLC13A1	0.0999	0.14	0.288	0.0153	0.122
63	MMP10	0.0953	0.179	0.281	0.0254	0.323
